Results are given in words; binding and its absence hold for the method and conditions named. Binding seen in cells or lysates may run through a third protein. Some results given as binding are weak or reduced against the parent protein; the word gives no strength. For some of these results: Tags and fused reporters may be left off the sequences shown.
Tests used:
[1] = target: T1, Lon (Co-IP with NDUFS8, Supplementary Figure S4A) (human) (UniProt P36776); assay: co-IP; Co-IP of Lon and NDUFS8 (Supplementary Figure S4A); cells not told in what was shown
T1 sequence: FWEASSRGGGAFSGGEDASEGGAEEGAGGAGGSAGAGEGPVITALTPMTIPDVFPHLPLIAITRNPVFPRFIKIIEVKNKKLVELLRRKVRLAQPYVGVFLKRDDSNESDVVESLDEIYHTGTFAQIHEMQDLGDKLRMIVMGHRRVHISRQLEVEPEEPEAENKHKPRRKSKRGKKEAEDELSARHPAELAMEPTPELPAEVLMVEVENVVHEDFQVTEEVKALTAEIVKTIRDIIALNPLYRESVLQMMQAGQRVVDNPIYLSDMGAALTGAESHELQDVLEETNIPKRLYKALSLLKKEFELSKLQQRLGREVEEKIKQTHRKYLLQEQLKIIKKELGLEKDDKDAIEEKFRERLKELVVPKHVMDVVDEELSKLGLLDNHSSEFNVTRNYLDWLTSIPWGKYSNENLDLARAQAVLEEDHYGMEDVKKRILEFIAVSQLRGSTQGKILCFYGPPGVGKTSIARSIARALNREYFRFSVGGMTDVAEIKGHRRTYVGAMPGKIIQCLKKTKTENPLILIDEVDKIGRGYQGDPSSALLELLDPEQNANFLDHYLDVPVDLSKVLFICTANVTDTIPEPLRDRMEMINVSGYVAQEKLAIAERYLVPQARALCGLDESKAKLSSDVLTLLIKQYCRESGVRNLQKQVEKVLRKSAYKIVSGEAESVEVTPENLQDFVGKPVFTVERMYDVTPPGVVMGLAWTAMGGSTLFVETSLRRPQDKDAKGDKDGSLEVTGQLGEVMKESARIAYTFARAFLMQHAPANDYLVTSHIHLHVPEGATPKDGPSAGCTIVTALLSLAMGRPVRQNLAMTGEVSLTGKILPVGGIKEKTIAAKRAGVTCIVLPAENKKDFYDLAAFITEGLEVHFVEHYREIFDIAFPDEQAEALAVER

The chains behind the UniProt entries cited, without tags or fusion partners. Where a name states a change or a piece, a line headed by the entry shows the natural chain unless it says otherwise. Residues count along the entry.
UniProt P38646, residues 47-679: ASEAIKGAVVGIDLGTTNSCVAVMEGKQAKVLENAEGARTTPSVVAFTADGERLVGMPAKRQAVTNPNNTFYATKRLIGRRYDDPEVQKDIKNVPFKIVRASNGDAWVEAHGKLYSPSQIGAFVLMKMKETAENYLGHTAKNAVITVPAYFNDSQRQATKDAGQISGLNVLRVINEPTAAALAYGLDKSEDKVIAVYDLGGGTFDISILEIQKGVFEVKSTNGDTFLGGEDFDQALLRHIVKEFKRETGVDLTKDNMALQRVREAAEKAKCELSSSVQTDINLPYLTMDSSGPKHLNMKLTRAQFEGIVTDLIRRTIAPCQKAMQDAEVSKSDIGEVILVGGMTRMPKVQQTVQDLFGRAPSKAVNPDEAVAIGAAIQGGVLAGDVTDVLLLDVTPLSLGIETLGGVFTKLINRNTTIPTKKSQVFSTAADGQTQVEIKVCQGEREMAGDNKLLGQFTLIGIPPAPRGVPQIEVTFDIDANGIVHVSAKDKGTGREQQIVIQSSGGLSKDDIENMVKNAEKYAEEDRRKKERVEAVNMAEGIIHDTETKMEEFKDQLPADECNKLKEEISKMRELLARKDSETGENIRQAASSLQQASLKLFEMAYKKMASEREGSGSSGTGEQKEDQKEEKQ
UniProt O00217, residues 35-210: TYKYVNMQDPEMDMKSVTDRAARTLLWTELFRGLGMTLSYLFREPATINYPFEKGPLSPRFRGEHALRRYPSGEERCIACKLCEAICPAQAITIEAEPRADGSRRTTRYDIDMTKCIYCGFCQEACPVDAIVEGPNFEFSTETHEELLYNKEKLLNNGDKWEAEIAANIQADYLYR
UniProt P10809, residues 27-573: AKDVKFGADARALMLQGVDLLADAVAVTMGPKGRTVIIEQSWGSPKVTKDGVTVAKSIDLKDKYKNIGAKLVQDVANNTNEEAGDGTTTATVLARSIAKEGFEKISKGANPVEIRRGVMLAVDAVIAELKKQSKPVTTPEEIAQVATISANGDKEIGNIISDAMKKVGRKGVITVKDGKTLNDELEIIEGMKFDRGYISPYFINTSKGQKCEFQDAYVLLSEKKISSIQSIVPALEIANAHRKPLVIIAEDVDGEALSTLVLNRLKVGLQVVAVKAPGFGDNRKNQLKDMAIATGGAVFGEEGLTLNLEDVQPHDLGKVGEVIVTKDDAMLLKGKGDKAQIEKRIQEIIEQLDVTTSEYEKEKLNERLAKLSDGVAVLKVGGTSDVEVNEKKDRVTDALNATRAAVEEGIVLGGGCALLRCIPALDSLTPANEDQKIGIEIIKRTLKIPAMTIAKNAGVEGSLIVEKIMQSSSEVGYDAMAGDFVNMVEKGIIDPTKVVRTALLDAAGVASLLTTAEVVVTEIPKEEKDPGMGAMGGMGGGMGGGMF

[2] = target: mtHsp70 (endogenous, FADU cells) (human (endogenous in FADU)) (UniProt P38646); assay: co-IP; FADU cells infected with vector or shRNAs for Hsp60, mtHsp70 or Lon; IP of endogenous proteins with anti-Lon, anti-mtHsp70 or anti-Hsp60, western blot
[3] = target: T2, endogenous Lon (FADU cells) (human (endogenous in FADU)) (UniProt P36776); assay: as above
T2 sequence: T1 sequence

[4] = target: T3, Human Lon protease with Myc tag (human) (UniProt P36776); assay: co-IP; 293/Lon cells; IP with anti-mtHsp70 or anti-Lon, western blot
T3 sequence: T1 sequence

In the case of “NDUFS8 (Co-IP with Lon, Supplementary Figure S4A) (from UniProt O00217 35-210)”, the binding [1] is reported as “binds”.
In the case of “Hsp60 (endogenous, FADU cells) (from UniProt P10809 27-573)”, the binding [2] is reported as “binds”.
For “mtHsp70 (endogenous, FADU cells) (from UniProt P38646 47-679)”, the binding [3] was “binds”.
With “Stress-70 protein, mitochondrial (mtHSP70) (from UniProt P38646 47-679)” the binding [4] was “binds”.
